Drawing on the supplement of paper PMC6411743, this text covers NP40-soluble protein abundance for one molecule.

In this test the target is T1, SEMA4D (UniProt Q92854).
T1 sequence (whole entry): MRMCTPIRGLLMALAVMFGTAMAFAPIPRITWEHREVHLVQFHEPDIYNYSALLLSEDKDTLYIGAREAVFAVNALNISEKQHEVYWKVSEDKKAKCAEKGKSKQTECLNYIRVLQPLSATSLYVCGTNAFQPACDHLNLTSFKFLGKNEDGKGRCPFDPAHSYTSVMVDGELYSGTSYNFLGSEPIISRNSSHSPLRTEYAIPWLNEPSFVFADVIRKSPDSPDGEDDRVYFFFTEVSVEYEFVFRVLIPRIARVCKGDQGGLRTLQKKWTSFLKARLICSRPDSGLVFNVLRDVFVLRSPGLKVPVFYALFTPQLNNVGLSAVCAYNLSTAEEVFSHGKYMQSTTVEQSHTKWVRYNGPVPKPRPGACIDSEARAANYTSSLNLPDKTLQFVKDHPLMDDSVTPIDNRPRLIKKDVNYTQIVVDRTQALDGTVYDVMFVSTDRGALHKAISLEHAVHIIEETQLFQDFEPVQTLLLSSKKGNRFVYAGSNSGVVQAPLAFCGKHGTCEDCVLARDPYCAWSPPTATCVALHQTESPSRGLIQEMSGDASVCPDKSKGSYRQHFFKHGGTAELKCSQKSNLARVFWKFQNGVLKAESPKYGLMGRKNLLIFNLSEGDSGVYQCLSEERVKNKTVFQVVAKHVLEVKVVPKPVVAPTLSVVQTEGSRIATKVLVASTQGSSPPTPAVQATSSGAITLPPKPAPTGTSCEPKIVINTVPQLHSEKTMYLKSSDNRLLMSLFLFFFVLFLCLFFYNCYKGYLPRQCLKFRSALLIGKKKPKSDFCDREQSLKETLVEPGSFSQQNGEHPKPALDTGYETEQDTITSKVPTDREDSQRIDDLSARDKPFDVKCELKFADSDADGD
Nature of the test: NP40-soluble protein abundance relative to vehicle (solubility fold change) (ratio); higher = more soluble protein in presence of GTP. The procedure: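 Solubility proteome profiling in Jurkat crude lysate. Lysate was treated with Mg-GTP (0.1-10 mM) for 10 min at room temperature and 3 min at 37 °C, then solubilised with 0.8% NP40 and benzonase, followed by ultracentrifugation. Proteins were quantified by TMT10 LC-MS/MS; the value is the NP40-soluble abundance relative to the NP40-processed vehicle, from 3 independent experiments.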

± gives the standard deviation of the averaged measurements. The list shows a part of the results.

With `Nc1nc2c(ncn2[C@@H]2O[C@H](COP(=O)(O)OP(=O)(O)OP(=O)(O)O)[C@@H](O)[C@H]2O)c(=O)[nH]1` [guanosine triphosphate], the NP40-soluble protein abundance runs as follows: (concentration: 0.1mM) 0.942 ± 0.029; (concentration: 0.5mM) 0.911 ± 0.044; (concentration: 1mM) 0.946 ± 0.069; (concentration: 2mM) 0.915 ± 0.087; (concentration: 4mM) 0.89 ± 0.081; (concentration: 6mM) 0.918 ± 0.082. Also, the NP40-soluble protein abundance by setting is: (concentration: 8mM) 0.926 ± 0.053; (concentration: 10mM) 0.912 ± 0.028.
